Measured values taken from the supplement of paper PMC12067093, “Discovery and optimisation of a covalent ligand for TRIM25 and its application to targeted protein ubiquitination” (Chemical Science, 2025).
This is one part of the list.

Sequences of proteins named here, by UniProt entry; tags and fusion partners are left off. A change or cut given only in a name is not applied to a line headed by its entry.
UniProt P05455: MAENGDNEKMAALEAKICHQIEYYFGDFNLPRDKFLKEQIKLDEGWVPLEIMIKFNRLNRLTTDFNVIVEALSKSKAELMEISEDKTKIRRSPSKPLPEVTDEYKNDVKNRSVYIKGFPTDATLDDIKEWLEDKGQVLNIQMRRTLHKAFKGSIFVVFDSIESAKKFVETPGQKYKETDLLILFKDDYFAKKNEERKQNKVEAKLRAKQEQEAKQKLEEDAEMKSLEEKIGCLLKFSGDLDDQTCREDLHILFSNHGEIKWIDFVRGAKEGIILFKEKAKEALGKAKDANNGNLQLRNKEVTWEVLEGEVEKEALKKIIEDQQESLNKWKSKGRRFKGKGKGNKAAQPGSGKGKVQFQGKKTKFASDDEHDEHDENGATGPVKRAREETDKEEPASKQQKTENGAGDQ
UniProt P31948, whole entry, looked up: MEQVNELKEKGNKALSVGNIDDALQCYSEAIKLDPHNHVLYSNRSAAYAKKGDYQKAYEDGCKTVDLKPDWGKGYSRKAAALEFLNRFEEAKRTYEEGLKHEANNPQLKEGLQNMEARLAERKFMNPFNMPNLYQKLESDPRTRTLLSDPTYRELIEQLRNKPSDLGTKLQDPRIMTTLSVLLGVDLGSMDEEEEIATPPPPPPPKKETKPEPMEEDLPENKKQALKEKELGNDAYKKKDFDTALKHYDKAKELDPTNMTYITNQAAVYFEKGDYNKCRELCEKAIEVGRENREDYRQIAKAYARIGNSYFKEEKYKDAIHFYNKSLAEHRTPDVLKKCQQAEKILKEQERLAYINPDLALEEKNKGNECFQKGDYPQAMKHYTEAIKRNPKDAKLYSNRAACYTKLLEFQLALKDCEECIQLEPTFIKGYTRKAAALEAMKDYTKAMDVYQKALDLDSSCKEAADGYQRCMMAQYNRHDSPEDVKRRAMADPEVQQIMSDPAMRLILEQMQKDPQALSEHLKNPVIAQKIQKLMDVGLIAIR
UniProt Q9Y5Y6: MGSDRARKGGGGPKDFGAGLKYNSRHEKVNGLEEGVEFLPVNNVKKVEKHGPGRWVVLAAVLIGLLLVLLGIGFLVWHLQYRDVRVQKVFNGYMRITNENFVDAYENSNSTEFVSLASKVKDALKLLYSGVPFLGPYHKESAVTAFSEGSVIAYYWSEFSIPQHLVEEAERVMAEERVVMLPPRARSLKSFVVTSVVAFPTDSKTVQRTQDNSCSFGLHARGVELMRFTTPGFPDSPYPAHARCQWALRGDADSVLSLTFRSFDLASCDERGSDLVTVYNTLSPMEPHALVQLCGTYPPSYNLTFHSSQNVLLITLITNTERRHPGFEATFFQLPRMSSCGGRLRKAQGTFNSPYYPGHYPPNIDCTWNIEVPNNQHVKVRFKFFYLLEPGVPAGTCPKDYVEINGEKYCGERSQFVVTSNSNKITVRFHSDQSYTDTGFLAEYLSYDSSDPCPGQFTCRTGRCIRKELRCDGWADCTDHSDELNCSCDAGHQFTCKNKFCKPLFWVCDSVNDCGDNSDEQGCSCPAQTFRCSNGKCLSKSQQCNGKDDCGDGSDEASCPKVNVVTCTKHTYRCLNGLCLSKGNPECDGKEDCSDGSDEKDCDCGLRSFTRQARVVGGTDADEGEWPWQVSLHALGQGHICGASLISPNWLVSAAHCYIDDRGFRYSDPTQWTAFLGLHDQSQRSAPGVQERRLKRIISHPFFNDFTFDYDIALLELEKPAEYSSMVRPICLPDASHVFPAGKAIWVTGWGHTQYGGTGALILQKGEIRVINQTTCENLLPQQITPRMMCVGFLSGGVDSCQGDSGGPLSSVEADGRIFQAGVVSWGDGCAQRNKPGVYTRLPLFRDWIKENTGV
UniProt Q9UH65: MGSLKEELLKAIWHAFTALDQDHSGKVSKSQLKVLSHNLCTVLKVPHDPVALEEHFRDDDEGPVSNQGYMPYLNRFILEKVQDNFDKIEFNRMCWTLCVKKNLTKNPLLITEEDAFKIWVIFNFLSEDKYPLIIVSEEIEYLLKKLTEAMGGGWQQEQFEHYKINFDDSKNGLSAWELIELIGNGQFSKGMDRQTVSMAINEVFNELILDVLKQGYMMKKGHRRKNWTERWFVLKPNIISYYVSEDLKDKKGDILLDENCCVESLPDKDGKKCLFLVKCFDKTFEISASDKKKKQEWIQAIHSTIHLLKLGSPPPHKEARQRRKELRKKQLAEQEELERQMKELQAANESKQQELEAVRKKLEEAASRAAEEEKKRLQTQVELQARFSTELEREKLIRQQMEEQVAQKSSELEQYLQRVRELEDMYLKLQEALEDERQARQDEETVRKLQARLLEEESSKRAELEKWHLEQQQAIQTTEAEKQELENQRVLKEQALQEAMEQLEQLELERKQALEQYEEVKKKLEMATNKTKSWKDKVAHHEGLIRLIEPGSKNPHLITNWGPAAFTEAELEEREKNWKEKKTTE
UniProt Q9UQ35: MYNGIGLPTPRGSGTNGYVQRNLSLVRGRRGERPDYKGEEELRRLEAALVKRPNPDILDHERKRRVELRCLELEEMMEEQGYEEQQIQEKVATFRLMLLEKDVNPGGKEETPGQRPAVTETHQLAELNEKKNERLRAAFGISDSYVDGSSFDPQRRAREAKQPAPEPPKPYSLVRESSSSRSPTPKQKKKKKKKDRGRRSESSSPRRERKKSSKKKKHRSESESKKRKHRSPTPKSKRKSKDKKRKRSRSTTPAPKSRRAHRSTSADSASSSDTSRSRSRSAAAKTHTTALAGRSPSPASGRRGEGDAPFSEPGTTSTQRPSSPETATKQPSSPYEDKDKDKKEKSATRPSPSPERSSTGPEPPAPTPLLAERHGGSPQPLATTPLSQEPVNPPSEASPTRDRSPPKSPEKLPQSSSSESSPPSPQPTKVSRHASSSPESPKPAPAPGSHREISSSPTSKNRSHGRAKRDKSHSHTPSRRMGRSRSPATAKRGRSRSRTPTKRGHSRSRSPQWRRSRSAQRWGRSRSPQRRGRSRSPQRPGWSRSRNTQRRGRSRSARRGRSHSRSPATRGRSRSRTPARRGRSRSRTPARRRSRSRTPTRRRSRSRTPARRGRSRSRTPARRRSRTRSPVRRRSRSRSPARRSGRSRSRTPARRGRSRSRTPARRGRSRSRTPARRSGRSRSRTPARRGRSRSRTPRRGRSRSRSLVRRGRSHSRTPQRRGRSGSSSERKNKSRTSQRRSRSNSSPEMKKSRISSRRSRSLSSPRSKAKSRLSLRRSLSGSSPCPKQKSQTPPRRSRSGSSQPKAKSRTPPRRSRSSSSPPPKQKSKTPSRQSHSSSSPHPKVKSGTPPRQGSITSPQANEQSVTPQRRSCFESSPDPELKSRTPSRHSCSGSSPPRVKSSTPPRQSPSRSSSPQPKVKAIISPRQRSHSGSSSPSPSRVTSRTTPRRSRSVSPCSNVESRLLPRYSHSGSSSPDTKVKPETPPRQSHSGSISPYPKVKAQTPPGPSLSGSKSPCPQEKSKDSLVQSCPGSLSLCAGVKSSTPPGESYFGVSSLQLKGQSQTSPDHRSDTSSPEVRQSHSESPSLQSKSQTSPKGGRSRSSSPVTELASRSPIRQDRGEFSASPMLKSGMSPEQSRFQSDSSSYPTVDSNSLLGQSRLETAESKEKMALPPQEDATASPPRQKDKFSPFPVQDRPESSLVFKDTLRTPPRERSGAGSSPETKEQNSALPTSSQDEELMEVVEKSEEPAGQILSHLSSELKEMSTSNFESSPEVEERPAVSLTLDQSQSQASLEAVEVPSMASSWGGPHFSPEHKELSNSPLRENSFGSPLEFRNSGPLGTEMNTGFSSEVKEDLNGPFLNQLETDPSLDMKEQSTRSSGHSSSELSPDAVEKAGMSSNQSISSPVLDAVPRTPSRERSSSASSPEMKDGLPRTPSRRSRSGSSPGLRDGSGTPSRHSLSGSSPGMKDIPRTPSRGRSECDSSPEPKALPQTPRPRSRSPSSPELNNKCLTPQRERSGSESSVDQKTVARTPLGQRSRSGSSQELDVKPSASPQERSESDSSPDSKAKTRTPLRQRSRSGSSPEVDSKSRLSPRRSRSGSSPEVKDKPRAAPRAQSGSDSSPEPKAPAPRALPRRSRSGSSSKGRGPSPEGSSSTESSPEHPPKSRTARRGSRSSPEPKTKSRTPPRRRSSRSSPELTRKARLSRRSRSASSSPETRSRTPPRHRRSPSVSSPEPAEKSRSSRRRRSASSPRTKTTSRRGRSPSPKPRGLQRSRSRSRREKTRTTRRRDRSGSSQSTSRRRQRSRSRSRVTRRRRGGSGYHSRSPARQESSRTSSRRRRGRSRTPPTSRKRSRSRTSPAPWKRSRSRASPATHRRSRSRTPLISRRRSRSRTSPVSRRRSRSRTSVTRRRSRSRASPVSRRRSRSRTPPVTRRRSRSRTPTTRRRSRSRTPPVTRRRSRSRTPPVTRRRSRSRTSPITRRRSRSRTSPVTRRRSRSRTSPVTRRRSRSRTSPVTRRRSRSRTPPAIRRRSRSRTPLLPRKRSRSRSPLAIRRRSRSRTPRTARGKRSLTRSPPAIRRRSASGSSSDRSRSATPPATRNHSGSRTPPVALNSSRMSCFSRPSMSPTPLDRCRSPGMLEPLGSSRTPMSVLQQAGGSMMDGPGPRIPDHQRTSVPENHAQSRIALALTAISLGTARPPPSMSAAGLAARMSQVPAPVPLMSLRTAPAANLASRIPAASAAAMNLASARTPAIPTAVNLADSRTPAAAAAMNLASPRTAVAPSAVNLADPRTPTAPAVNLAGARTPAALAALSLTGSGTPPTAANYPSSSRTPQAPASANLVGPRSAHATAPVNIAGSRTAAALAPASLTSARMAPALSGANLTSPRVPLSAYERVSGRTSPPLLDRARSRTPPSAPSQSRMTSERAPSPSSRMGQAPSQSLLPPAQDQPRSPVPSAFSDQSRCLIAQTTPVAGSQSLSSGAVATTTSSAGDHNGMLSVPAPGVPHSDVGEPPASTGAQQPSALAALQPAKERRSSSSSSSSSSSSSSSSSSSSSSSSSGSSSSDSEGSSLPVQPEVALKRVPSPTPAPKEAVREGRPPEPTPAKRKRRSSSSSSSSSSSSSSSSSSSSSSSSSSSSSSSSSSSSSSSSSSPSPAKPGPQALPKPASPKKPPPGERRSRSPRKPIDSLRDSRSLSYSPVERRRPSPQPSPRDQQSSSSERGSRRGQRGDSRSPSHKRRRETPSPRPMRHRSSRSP
UniProt Q9NSY2, whole entry: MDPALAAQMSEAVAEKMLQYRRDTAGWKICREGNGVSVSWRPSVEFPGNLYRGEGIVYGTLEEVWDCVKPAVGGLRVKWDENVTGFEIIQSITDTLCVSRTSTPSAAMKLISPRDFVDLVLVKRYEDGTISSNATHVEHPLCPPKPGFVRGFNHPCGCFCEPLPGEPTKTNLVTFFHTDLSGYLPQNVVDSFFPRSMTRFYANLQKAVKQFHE
UniProt Q8N3U4: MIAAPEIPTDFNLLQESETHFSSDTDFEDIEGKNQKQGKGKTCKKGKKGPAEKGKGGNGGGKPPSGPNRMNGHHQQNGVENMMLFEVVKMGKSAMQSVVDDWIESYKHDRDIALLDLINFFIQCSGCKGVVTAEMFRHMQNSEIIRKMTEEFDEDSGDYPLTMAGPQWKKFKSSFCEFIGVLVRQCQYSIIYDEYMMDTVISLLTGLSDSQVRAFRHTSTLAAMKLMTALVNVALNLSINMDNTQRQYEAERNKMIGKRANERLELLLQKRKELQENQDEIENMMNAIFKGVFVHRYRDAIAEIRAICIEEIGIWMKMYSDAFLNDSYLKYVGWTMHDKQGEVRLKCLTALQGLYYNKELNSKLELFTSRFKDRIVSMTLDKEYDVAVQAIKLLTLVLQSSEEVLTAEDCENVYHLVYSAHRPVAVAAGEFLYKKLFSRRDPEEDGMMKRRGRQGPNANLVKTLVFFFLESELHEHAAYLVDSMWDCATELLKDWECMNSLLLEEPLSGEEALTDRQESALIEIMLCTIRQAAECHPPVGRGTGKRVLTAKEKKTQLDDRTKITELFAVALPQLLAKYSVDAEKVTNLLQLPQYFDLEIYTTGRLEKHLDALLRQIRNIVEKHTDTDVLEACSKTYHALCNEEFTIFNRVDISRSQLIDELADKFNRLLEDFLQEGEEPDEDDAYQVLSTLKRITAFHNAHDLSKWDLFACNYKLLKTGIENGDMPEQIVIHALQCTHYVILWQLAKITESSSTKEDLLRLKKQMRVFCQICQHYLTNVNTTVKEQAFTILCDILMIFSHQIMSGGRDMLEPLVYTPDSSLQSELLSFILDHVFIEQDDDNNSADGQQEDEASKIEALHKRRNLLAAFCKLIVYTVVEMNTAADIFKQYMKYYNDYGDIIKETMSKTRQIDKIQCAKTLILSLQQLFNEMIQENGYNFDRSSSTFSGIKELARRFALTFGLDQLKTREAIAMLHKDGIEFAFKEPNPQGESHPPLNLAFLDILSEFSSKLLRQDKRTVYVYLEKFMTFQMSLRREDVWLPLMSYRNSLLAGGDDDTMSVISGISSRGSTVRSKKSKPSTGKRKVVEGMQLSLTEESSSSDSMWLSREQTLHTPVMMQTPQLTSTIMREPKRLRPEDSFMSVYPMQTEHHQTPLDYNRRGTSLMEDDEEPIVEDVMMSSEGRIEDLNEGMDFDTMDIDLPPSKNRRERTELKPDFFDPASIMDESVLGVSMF

Compound: Cc1cc(ccc1-c1ccccc1)C(=O)N1CCCN(CC1)C(=O)CCl [compound 10]
Test: probe-labelled cysteine peptide fold change vs DMSO (competition) (log2 fold change); higher = less target engagement (more negative = stronger competition)
Conditions: THP-1, incubation time: 4 h
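Also: competitive profiling in live THP-1 cells: cysteine peptides tagged with an iodoacetamide desthiobiotin (IA-DTB) probe, intensity after compound treatment relative to DMSO-treated cells.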

Target | probe-labelled cysteine peptide fold change (10 µM) | probe-labelled cysteine peptide fold change (50 µM)
SSB_P05455_18_ICHQIEYYFGDFNLPR (UniProt P05455) | 0.0242 | 0.122
STIP1_P31948_417+420_DCEECIQLEPTFIK (UniProt P31948) | 0.874 | -0.0811
STK11IP_Q8N1F8_538_EVEAELCRPLLVCPLEGPEGVR (UniProt Q8N1F8) | -0.068 | -0.129
SUCLG1_P53597_172+181_LIGPNCPGVINPGECK (UniProt P53597) | -0.119 | -0.113
ST14_Q9Y5Y6_567_VNVVTCTK (UniProt Q9Y5Y6) | -0.153 | -0.788
STIP1_P31948_26_ALSVGNIDDALQCYSEAIK (UniProt P31948) | 0.326 | -0.0316
SSH3_Q8TE77_413_AQGTHVLVHCK (UniProt Q8TE77) | 0.153 | 0.0646
SVIL_O95425_671_CTSHSETPTVDDEEK (UniProt O95425) | 0.141 | 0.153
SUPT16H_Q9Y5B9_323_ICDVYNAVMDVVKK (UniProt Q9Y5B9) | -0.00366 | 0.131
SUGT1_Q9Y2Z0_88_GICEYHEK (UniProt Q9Y2Z0) | 0.0968 | -0.0656
ST14_Q9Y5Y6_268_SFDLASCDER (UniProt Q9Y5Y6) | -0.0626 | -1.09
STRBP_Q96SI9_142_YQVEQCVNEASIIIR (UniProt Q96SI9) | -0.212 | -0.298
SUPV3L1_Q8IYB8_175_QIFPVLDCKDDLRK (UniProt Q8IYB8) | -0.13 | -0.467
STK17B_O94768_334_SSCNGTCGDREDK (UniProt O94768) | 0.0198 | -0.0928
SRRT_Q9BXP5_490_ECELSPGVNR (UniProt Q9BXP5) | 0.0063 | 0.218
SSBP4_Q9BWG4_81_EACEHSGEAK (UniProt Q9BWG4) | -0.186 | -0.777
SWAP70_Q9UH65_260_GDILLDENCCVESLPDK (UniProt Q9UH65) | 0.124 | 0.17
SRRM2_Q9UQ35_956_SVSPCSNVESR (UniProt Q9UQ35) | -0.0208 | 0.233
STK38_Q15208_9_AMTGSTPCSSMSNHTK (UniProt Q15208) | 0.103 | -0.865
SUZ12_Q15022_325_LQLLDGEYEVAMQEMEECPISK (UniProt Q15022) | -0.129 | -0.99

Target | probe-labelled cysteine peptide fold change (10 µM) | probe-labelled cysteine peptide fold change (50 µM)
SSB_P05455_245_FSGDLDDQTCR (UniProt P05455) | 0.0779 | 0.184
SUPT16H_Q9Y5B9_153_SWNDCLNK (UniProt Q9Y5B9) | -0.0906 | 0.0803
STARD5_Q9NSY2_67_GEGIVYGTLEEVWDCVK (UniProt Q9NSY2) | 0.0356 | 0.0149
STAG2_Q8N3U4_527_QESALIEIMLCTIR (UniProt Q8N3U4) | -0.207 | -0.2
STK17B_O94768_372_FRFDDSLPNPHELVSDLLC (UniProt O94768) | -0.0801 | 0.369
SSRP1_Q08945_343_ITVPGNFQGHSGAQCITCSYK (UniProt Q08945) | -0.0176 | 0.28
STRN_O43815_740_TCIQEFTAHR (UniProt O43815) | 0.126 | 0.00131
SWAP70_Q9UH65_261_GDILLDENCCVESLPDK (UniProt Q9UH65) | 0.0948 | 0.239
SUPT20H_Q8NEM7_341_SDDSQPTVWPAHDVKDDYVFECEAGTQYQK (UniProt Q8NEM7) | -0.365 | -0.157
STUB1_Q9UNE7_180_ERELEECQR (UniProt Q9UNE7) | 0.0592 | 0.157
STK11_Q15831_418_ACSASSK (UniProt Q15831) | -0.73 | -1.42
STRN_O43815_316_EDQCLMPEAWNVDQGVITK (UniProt O43815) | -0.23 | -0.374
STXBP2_Q15833_353_YSTHLHLADDCMK (UniProt Q15833) | -0.122 | -0.28
SUPT16H_Q9Y5B9_574_INFYCPGSALGR (UniProt Q9Y5B9) | 0.00628 | 0.427
STK39_Q9UEW8_450_EASSCAVNLVLR (UniProt Q9UEW8) | -0.028 | 0.0278
STXBP5_Q5T5C0_697_SRQPSGAGLCDISEGTVVPEDR (UniProt Q5T5C0) | -0.389 | -0.218
SRRM2_Q9UQ35_1480_SECDSSPEPK (UniProt Q9UQ35) | -0.151 | -0.131
STAT1_P42224_155_VMCIEHEIK (UniProt P42224) | 0.0705 | -0.344
SSRP1_Q08945_200_ADVIQATGDAICIFR (UniProt Q08945) | 0.0619 | -0.0752

Part of the list above, with tabs.
Target	probe-labelled cysteine peptide fold change (10 µM)	probe-labelled cysteine peptide fold change (50 µM)
STAG2_Q8N3U4_527_QESALIEIMLCTIR (UniProt Q8N3U4)	-0.207	-0.2
STK17B_O94768_372_FRFDDSLPNPHELVSDLLC (UniProt O94768)	-0.0801	0.369
